Data from paper PMC10951710.
No constants are given. Whether binding was seen depends on the method and setting. Binding seen in cells or lysates may run through a third protein. A yes stands for co-enrichment or nearness to the bait. Other partners may have been found. Tags and fused reporters may be left off the sequences shown.

Amino acid sequences for entries named in this document (tags omitted). A change or cut given only in a name is not applied to a line headed by its entry.
UniProt F4IMY0: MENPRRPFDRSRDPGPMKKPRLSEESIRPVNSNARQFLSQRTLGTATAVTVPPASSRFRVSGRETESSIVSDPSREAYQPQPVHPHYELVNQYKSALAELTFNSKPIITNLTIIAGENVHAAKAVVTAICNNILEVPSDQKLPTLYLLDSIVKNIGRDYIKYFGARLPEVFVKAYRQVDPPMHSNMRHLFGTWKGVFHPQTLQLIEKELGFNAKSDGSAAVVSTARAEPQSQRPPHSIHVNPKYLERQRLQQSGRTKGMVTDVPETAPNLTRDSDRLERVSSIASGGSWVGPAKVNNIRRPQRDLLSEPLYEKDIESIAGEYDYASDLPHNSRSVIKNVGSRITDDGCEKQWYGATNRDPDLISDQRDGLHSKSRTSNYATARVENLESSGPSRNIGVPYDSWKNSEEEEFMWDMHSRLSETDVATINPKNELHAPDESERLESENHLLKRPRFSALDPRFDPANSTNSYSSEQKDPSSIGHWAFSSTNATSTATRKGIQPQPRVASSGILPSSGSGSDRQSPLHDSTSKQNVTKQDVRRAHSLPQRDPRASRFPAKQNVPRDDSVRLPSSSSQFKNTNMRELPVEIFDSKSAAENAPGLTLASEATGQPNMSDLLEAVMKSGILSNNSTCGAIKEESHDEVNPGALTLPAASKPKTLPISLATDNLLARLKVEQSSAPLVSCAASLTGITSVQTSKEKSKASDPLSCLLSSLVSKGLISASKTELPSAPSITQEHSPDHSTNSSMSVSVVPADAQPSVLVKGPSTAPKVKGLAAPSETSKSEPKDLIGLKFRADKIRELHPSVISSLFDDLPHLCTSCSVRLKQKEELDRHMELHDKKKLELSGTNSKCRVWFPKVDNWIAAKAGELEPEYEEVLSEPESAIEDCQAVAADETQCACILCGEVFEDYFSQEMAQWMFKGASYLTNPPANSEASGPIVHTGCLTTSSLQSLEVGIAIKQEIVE

T1: MKK1-TurboID-Hisx8 fusion protein (mitogen-activated protein kinase kinase 1 fused to TurboID) (Arabidopsis thaliana) (UniProt Q94A06)
T1 sequence: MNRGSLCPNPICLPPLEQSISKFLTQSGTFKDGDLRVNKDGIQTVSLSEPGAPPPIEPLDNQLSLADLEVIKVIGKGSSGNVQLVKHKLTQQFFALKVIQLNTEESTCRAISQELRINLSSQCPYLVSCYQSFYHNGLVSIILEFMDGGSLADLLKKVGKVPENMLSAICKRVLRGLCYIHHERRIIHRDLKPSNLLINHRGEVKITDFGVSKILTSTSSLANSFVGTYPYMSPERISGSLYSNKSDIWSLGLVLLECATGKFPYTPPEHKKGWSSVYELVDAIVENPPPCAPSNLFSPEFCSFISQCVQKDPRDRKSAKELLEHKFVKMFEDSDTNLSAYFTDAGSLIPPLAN

T2: MKK2-TurboID-Hisx8 fusion protein (mitogen-activated protein kinase kinase 2 fused to TurboID) (Arabidopsis thaliana) (UniProt Q9S7U9)
T2 sequence: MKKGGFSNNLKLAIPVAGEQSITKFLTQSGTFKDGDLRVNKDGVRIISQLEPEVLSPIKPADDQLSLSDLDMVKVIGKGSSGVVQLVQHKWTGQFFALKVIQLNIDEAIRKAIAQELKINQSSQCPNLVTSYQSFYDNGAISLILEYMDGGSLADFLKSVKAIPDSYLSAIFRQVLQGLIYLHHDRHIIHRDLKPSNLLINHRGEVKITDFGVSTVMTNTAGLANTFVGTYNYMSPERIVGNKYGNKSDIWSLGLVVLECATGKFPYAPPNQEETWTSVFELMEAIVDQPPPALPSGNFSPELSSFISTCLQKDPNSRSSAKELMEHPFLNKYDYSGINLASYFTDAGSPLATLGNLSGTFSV


Legend:
[1] = target: T1, MKK1-TurboID-Hisx8 fusion protein (mitogen-activated protein kinase kinase 1 fused to TurboID) (Arabidopsis thaliana); assay: proximity labelling; in planta TurboID labelling in MKK1-ID or MKK2-ID transgenic Arabidopsis against TurboID-only (ID) plants; 150 uM biotin and 5 uM estradiol in the medium, 5 min wind of 4 m/sec; denaturing extraction, streptavidin enrichment of biotinylproteins and biotinylpeptides, LC-MS/MS, iBAQ quantitation; hits at log2-ratio >= 1.58 and BH-FDR <= 0.05
[2] = target: T2, MKK2-TurboID-Hisx8 fusion protein (mitogen-activated protein kinase kinase 2 fused to TurboID) (Arabidopsis thaliana); assay: as above

Molecule	binding [1]	binding [2]
Involved in plant trans-Golgi network (TGN) transport (EPS2)	binds	binds
Pre-mRNA cleavage complex 2 Pcf11-like protein (from UniProt F4IMY0)	binds	binds
Transcriptional activator (DUF662)	binds	binds
Sorting nexin 2B (SNX2B) (protein, UniProt B9DFS6 1-572) MMGSENDEESHLHSSKEEMEKLFLREDGDPLTKSNVNGDKSNSNYRSAMSTLFDSRHPSIVVTPADSDPLFAPPSYYSESRSPRSKPNGGDRVSSYLEPPSYADVIFSPFDDISEINGSEDGHSQSSDSLSRSPSSLSSDYIKITVSNPQKEQEATNSMIPGGSTYITYQITTRTNLSDYGGSEFSVRRRFRDIVTLADRLAESYRGFCIPPRPDKSIVESQVMQKQEFVEQRRVALEKYLRRLVAHPVIRNSDELKVFLQAQGKLPLATSTDVASRMLDGAVKLPKQLFGEGGGASSVEVVQPGRGGRDFLRMFKELRQSVSNDWGGSKPPVVEEDKEFLEKKEKMYDLEQQIINASQQAESLVKAQQDMGETMGELGLAFIKLTKFENEEAVFNSQRARANDMKNLATSAVKASRFYRELNSQTVKHLDTLHDYLGLMMAVQGAFADRSSALLTVQTLLSELSSLEARAEKLEVASSKVFGGDKSRIKKIEELKETIKVTEDSKNVAIREYEQIKENNWSEVERLDRERRADFLNMMKGFVANQVGYAEKIANVWTKVAEETRQYDRESS	binds	
